This is an account of results in PubChem BioAssay AID493014 (National Center for Advancing Translational Sciences (NCATS), 2011).

The assay is described as follows: qHTS Assay to Find Inhibitors of Chronic Active B-Cell Receptor Signaling. The following applies: ABC-DLBCL IkBa-CBG/CBR reporter, luminescence ratio (green luciferase fused to IkBa over red control in TMD8 lymphoma cells), 4 h. Put shortly:
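Compounds up to 46 uM were incubated four hours with TMD8 cells whose green CBG68 luciferase is fused to IkappaBalpha; red CBR luminescence normalised the signal, and concentration-effect curves were fitted to fusion, red and ratio data.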

[1] abbreviates: measured here: CBR red luminescence, cell number.
The mark [2] stands for this setting: measured here: IkBa-CBG green luminescence.

Some of the results follow. These are further read-outs of the screen, such as a control signal, another cell line or another target. No call is given for them. The list favours compounds with an active or inconclusive main result. Words in brackets tell the shape of the fitted curve; partial curves, single points and poor fits give uncertain potencies.

As to `CCCCN(CCCC)C(=O)CSc1nnc(-c2cc(OC)c(OC)c(OC)c2)o1`, the half-maximal activity concentration (AC50) under setting [1] is 32.6 µM [rising, single point].

Regarding `Cn1nc(C(F)(F)F)cc1C(=O)O`, the AC50 under setting [1] was 2.82 µM [falling, partial curve].

Regarding `CCOC(=O)c1c(CSc2ccccc2)oc2cc(Br)c(O)c(CN(C)C)c12`, the AC50 under setting [1] was 35.5 µM [falling, single point].

On to `C[C@H](CO)N1C[C@H](C)[C@@H](CN(C)C(=O)Nc2ccc(C(F)(F)F)cc2)Oc2ccc(NC(=O)c3ccncc3)cc2C1=O`, for which, under setting [1], the concentration at half-maximal activity (AC50) is 9.2 µM [rising, partial curve].

As for `O=C(O)c1cccc(NC(=S)N/N=C/c2cccc(O)c2)c1`, the AC50 under setting [1] is 11.2 µM [falling, partial curve, poor fit].

With `O=C(COc1cccc2c1CCNC2=O)Nc1cccc(C(F)(F)F)c1`, the half-maximal activity concentration (AC50) under setting [1] is 13 µM [falling, partial curve, poor fit].

Regarding `CCOC(=O)Cc1nnc(NC(=O)CSc2nnc3c4ccccc4n(C(C)C)c3n2)s1`, the AC50 is 3.26 µM [falling, full curve] under setting [1] and 2.59 µM [rising, partial curve, poor fit] under setting [2].

For `COc1cc(C2CC(=O)Oc3cc(OC)c(OC)c(OC)c32)cc(OC)c1OC` (stereo unspecified), under setting [1], the AC50 was 1.03 µM [rising, full curve, poor fit].

On to `Cc1c(OCC(=O)NCCCN2CCOCC2)ccc2c(-c3ccccc3)cc(=O)oc12`, for which the concentration at half-maximal activity (AC50) under setting [1] is 35.5 µM [rising, single point].

On to `CCOCC(=O)Nc1nnc(C2CCCCC2)s1`, for which the AC50 under setting [1] is 29.1 µM [falling, single point].

`O=C(NC1CCCC1)c1cccc(Cn2cc([N+](=O)[O-])cn2)c1`: under setting [1], the AC50 is 11.6 µM [rising, partial curve, poor fit].

For `O=c1oc2cc(Br)ccc2n1Cc1ccccc1`, the AC50 under setting [1] was 35.5 µM [rising, single point].

As for `O=C(COC(=O)c1ccccc1[N+](=O)[O-])c1ccc2c(c1)OCO2`, under setting [1], the concentration at half-maximal activity (AC50) is 1.64 µM [rising, partial curve].

For `Cc1nc(C)c(-c2ccc(SCc3cccc(F)c3)nn2)s1`, the AC50 under setting [1] was 5.62 µM [falling, partial curve, poor fit].

Consider `COc1ccc(NS(=O)(=O)c2cccc(C(=O)N(C)Cc3ccc(SC)cc3)c2)cc1`, for which, under setting [1], the AC50 is 29.1 µM [falling, single point].

For `Cc1cccc(CS(=O)(=O)CC2Nc3ccc(C(=O)NCc4ccccc4Cl)cc3NC2=O)c1` (stereo unspecified), the AC50 under setting [1] is 3.16 µM [falling, partial curve, poor fit].

For `COc1cccc2sc(N(CCCN(C)C)C(=O)c3ccc(S(=O)(=O)N4CCCc5ccccc54)cc3)nc12`, under setting [1], the concentration at half-maximal activity (AC50) was 35.5 µM [falling, single point].

On to `COC(=O)c1ccccc1NC(=O)CSc1nnc(-c2cccnc2)n1C`, for which, under setting [1], the AC50 is 2.91 µM [falling, partial curve, poor fit].

As for `Cc1ccccc1/C=N/n1c(COc2ccccc2)n[nH]c1=S`, under setting [1], the AC50 was 15.8 µM [rising, partial curve, poor fit].

With `O=C(CSc1ncnc2ccccc12)c1ccco1`, the half-maximal activity concentration (AC50) under setting [1] is 8.91 µM [falling, partial curve].

Regarding `CNC(=O)NC(=O)CSc1nc2cc(C(=O)OC)ccc2c(=O)n1-c1ccccc1`, under setting [1], the AC50 was 3.98 µM [rising, partial curve, poor fit].

`COc1cccc(NC(=O)c2cnn(-c3ccccc3)c2C)c1`: the AC50 under setting [1] was 11.2 µM [falling, partial curve].

Consider `CCOc1ccc(C2c3[nH]c4ccccc4c3C[C@H]3C(=O)N(C4CCN(Cc5ccccc5)CC4)CC(=O)N23)cc1OC` (stereo partly specified), for which the AC50 under setting [1] was 15.8 µM [falling, single point].

As to `COC(=O)C(CC(C)C)Oc1ccc2c(C)cc(=O)oc2c1` (stereo unspecified), the half-maximal activity concentration (AC50) under setting [1] is 0.731 µM [rising, partial curve, poor fit].

Consider `O=C(CNC(=O)c1ccccc1F)N/N=C/c1ccc2c(c1)OCO2`, for which the AC50 under setting [1] is 4.47 µM [falling, partial curve, poor fit].

As to `Nc1ncnc2c1ncn2[C@@H]1O[C@H](CNC(=O)[C@@H]2CCCN2S(=O)(=O)c2ccc(F)cc2)[C@@H](O)[C@H]1O`, the AC50 under setting [1] is 29.1 µM [rising, single point] and the AC50 under setting [2] was 23.1 µM [falling, partial curve].

As for `NC(=O)COC(=O)Cc1coc2cc3c(cc12)CCC3`, the AC50 under setting [1] was 0.355 µM [falling, partial curve, poor fit].

Regarding `Cc1cc(=O)oc2cc(NC(=O)c3ccccc3Cl)ccc12`, the half-maximal activity concentration (AC50) under setting [1] was 1.58 µM [falling, full curve].

Regarding `CCCCC/C=C/C1=CC(=O)C[C@H](c2ccc3c(c2)OCO3)C1`, under setting [1], the AC50 is 16.4 µM [rising, partial curve].

On to `C/C(CC(=O)Nc1ccccn1)=N\NC(=O)c1cnccn1`, for which the AC50 under setting [1] was 28.2 µM [falling, single point].

As for `O=S(=O)(c1ccc(F)cc1)c1nc(-c2ccccc2F)oc1N1CCCCC1`, the half-maximal activity concentration (AC50) under setting [1] was 1.16 µM [rising, full curve, poor fit].

Regarding `O=C(O)CCN=C1CCc2ccccc2N1`, the AC50 under setting [1] is 20.6 µM [falling, single point].

Regarding `O=C(Nc1ccc(Cl)cc1)Nc1csc([N+](=O)[O-])c1`, under setting [1], the AC50 is 6.31 µM [rising, single point].

As to `Cc1cccc(C)c1NC(=O)CNC(=O)c1ccccc1OCc1ccccc1`, the AC50 under setting [1] was 2.06 µM [rising, full curve, poor fit].

On to `Cc1cccc(N2CCN(S(=O)(=O)c3c(C)[nH]c(=O)[nH]c3=O)CC2)c1C`, for which the AC50 under setting [1] was 16.4 µM [rising, partial curve, poor fit].

Take `Brc1csc2ncccc12`: under setting [1], the AC50 is 35.5 µM [rising, single point].

As to `COCCn1c(C)cc(C(=O)CSc2nc3ccccc3s2)c1C`, the concentration at half-maximal activity (AC50) under setting [1] is 7.31 µM [rising, single point].

As to `O=C(CCc1nc2ccccc2c(=O)[nH]1)Nc1cc(Cl)ccc1N1CCCCC1`, under setting [1], the concentration at half-maximal activity (AC50) is 7.31 µM [falling, partial curve, poor fit].

`CN1Cc2c(N3CCOCC3)nc3sc(C(=O)c4ccc(Br)cc4)c(N)c3c2CC1(C)C`: under setting [1], the AC50 is 14.1 µM [falling, single point].

Regarding `COc1ccccc1N=C(C)C1=C(O)CC(c2ccccc2)CC1=O` (stereo unspecified), the AC50 by setting is: under setting [1], 22.4 µM [rising, single point]; under setting [2], 22.4 µM [falling, single point].

`O=C(O)Cc1c(C(=O)O)[nH]c2ccc(C(=O)O)cc12`: the half-maximal activity concentration (AC50) under setting [1] was 10 µM [falling, partial curve].

As for `CN(C)CCNC(=O)C1CC(=O)N(c2ccc(F)c(Cl)c2)C1` (stereo unspecified), the AC50 under setting [1] was 1.46 µM [falling, partial curve, poor fit].

On to `Cc1ccc(NS(=O)(=O)c2ccc(NC(=O)c3cccs3)cc2)c(C)c1`, for which the AC50 under setting [1] is 20.6 µM [falling, single point].

For `CSc1n[nH]c2nc3c(c(=O)n12)C1(CCCC1)Cc1ccccc1-3`, the AC50 under setting [1] was 16.4 µM [falling, partial curve].

On to `O=S(=O)(c1cccc(NC(=S)N2CCN(c3ccccc3F)CC2)c1)C(F)F`, for which the AC50 under setting [1] was 25.9 µM [falling, single point].

As for `COc1cc(/C=N/Nc2nc3ccccc3[nH]c2=O)ccc1O`, the AC50 under setting [1] was 8.91 µM [falling, partial curve].

For the compound `Cc1ccc(NC(=O)Cc2nc(COC(=O)C(C)NS(=O)(=O)c3ccc(C)cc3)cs2)cc1` (stereo unspecified), under setting [1], the AC50 is 29.1 µM [rising, single point].

With `O=C(CNC(=O)c1ccco1)OCc1ccccc1Cl`, under setting [1], the AC50 was 14.6 µM [rising, partial curve].

As to `COC(=O)COc1ccc(S(=O)(=O)NCc2cccnc2)cc1C`, the AC50 under setting [1] is 29.1 µM [rising, single point].

On to `COc1ccc2c(c1)c(CC(=O)Nc1ccccc1OC)c(C)n2C(=O)c1ccc(Cl)cc1`, for which the AC50 under setting [1] is 9.2 µM [falling, partial curve, poor fit].

Take `O=C(CNC(=O)c1cccs1)OCc1ccc(Br)cc1`: the AC50 under setting [1] was 6.31 µM [rising, single point].

Turning to `CCCC(NC(=O)CCc1c(C)c2cc3c4c(oc3c(C)c2oc1=O)CCCC4)C(=O)O` (stereo unspecified), the AC50 under setting [1] is 0.562 µM [rising, partial curve, poor fit].

For `CN(C(=O)Nc1ccc(Cl)cc1)n1cnc2ccccc2c1=O`, under setting [1], the AC50 is 20 µM [rising, partial curve, poor fit].

Take `CCOc1cc(C(=O)Nc2cc(C)ccn2)cc(OCC)c1OCC`: the AC50 under setting [1] was 10 µM [falling, partial curve].

Regarding `COc1cccc(S(=O)(=O)NCc2ccc(C(=O)Nc3cccc(Cl)c3)cc2)c1`, the AC50 under setting [2] is 4.11 µM [rising, partial curve, poor fit].

As to `C/C(=N\Nc1ccc(Cl)c(C(=O)O)c1)c1ccccn1`, under setting [1], the AC50 is 11.2 µM [falling, partial curve].

For the compound `Cc1c([N+](=O)[O-])ccc(S(=O)(=O)N2CCC(C(N)=O)CC2)c1C`, under setting [1], the concentration at half-maximal activity (AC50) is 2.06 µM [rising, partial curve, poor fit].

With `CCc1ccc2oc(=O)cc(CN3CCCCC3C)c2c1` (stereo unspecified), the AC50 is, setting by setting: under setting [1], 15.8 µM [rising, single point]; under setting [2], 35.5 µM [falling, partial curve, poor fit].

With `COc1ccc(NC(=S)NCCc2ccccc2)c(OC)c1`, the AC50 under setting [1] was 23.1 µM [rising, single point].

Take `COc1ccc2c(=O)c3c(=O)n(-c4ccc(C)cc4)c(-c4ccccc4)nc3oc2c1`: the AC50 under setting [1] is 12.6 µM [falling, partial curve, poor fit].

`COc1ccc(CNC(=O)CN(C(=O)CCC(=O)Nc2nccs2)c2ccccc2C)cc1`: the AC50 under setting [1] is 20 µM [falling, single point].

As for `Cc1ccc(OCCNC(=O)c2cccc(S(=O)(=O)NCc3ccccc3)c2)cc1`, the AC50 under setting [2] was 18.4 µM [falling, partial curve, poor fit].
